Test results from PubChem BioAssay AID743266 (National Center for Advancing Translational Sciences (NCATS), 2014).
Screen size: about 410,000 compounds; about 310 (0.076%) were called active. Inconclusive results, whose numbers are uncertain, are shown with a selection of clear calls. The call rests on the fitted dose curve; in most records, active means well fitted activation curve with a large enough effect; inconclusive means small, poorly fitted or top-dose-only effect, or another doubt; inactive means no such curve, though single readings can be large or run the other way. Potencies beside an inconclusive call are fits to weak or partial responses and may not hold up.

Chains of the proteins cited; added tags and fusions are not shown. Lines headed by an entry give the natural chain unless they say otherwise; changes in a name come on top.
UniProt Q03431: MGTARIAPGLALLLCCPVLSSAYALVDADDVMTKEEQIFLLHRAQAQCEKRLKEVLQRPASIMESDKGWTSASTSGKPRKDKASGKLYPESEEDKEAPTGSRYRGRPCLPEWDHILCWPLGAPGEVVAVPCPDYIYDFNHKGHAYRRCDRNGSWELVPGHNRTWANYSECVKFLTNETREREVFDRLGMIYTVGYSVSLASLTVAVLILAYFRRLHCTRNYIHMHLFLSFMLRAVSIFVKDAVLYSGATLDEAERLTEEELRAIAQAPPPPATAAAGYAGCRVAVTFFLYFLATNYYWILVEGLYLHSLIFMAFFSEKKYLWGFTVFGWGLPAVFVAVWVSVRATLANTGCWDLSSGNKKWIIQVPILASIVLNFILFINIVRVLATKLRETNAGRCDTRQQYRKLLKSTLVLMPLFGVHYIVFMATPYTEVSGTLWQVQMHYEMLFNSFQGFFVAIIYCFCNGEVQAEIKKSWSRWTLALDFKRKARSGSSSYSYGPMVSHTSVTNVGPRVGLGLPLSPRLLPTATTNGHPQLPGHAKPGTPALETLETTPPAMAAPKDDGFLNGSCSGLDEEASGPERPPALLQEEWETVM

Each compound was assayed against Parathyroid hormone/parathyroid hormone-related peptide receptor (Homo sapiens) (UniProt Q03431) (assay: qHTS for PTHR1 Agonists: Primary Screen). Conditions: HEK293 GP2 PTHR1 cells, GloSensor cAMP luminescence, 1 h; activation: at 115 µM (top of the series) unless noted; series mostly up to 115 µM.
Summary of the method: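 HEK-293-derived GP2 cells expressing PTHR1 and a GloSensor cAMP reporter, 3,000/well, plated overnight, given luciferin plus IBMX (each 0.5 mM as added) for 1 h at 37 °C, then compound for 1 h at 37 °C. Luminescence was read after 15 min at room temperature.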
Further: nearly all actives have a fitted effect of over 55% in size.
Potency means the concentration at half of the fitted maximal effect.

Potency, inactive:
COc1ccccc1C(=O)N/C(=C\c1cn(C)c2ccccc12)C(=O)NCCCN1CCOCC1
OCCOCCNc1ncnc2c1c(-c1ccccc1)cn2-c1ccccc1
Cc1cc(Cl)cc(Cl)c1OCCOc1cccc2cccnc12
CC(C)(C)NC(=O)NC(=O)CN1CCN(C(c2ccccc2)c2ccccc2)CC1
CC(C)NC(=O)N(C)C[C@H]1Oc2ccc(NC(=O)Nc3ccccc3)cc2C(=O)N([C@H](C)CO)C[C@@H]1C
O=C(NC(c1ccccc1)c1ccsc1)C1CCN(Cc2ccc(Cl)c(Cl)c2)CC1 (stereo not drawn)
Oc1cncc(-c2cccnc2)c1
COC(=O)c1c(C)c2c(C)cc3ccccn3c-2c1C(=O)OC
CC(CC(=O)Nc1ccc(Cl)c(S(=O)(=O)N2CCOCC2)c1)c1ccccc1 (stereo not drawn)
Cc1cc(C)c(NC(=O)Cn2c(=O)n(Cc3ccc(C(=O)NCc4ccco4)cc3)c(=O)c3sccc32)c(C)c1
Cc1ccc2nc(SCC(=O)c3ccccc3)nc(=O)n2c1
COc1ccc(C2CC(=O)N(CC(=O)Nc3cccc(C)c3C)c3ccccc3S2)cc1OC (stereo not drawn)
CN1CCN(C2Cc3ccccc3Sc3ccc(Cl)cc32)CC1 (stereo not drawn)
CN1C2CCC1/C(=C\c1ccc(F)cc1)C(=O)/C2=C/c1ccc(F)cc1
COc1ccc(CNS(=O)(=O)c2ccc(-n3cccn3)cc2)cc1
Cc1ccc(N2C(=O)CSC23C(=O)N(CC(=O)Nc2ccccc2F)c2ccccc23)cc1C (stereo not drawn)
Cc1ccc(NC(=O)CSc2nc3nc(C)c(Br)cc3[nH]2)cc1F
N#Cc1c(N)nc2c(c1-c1ccccc1)CCC2
Cc1ccc(C)c(Cn2c(=O)n(CCCC(=O)NCc3ccc4c(c3)OCO4)c(=O)c3sccc32)c1
Cn1c2c(c(=O)n(C)c1=O)C(c1ccccc1Cl)C(C#N)=C(N)O2 (stereo not drawn)
COc1ccc(/C=N/n2cnnc2)cc1Br
Cc1ccc(S(=O)(=O)NCCc2csc(-c3ccc(Cl)cc3)n2)cc1
COc1ccc(F)cc1S(=O)(=O)NCC(c1ccco1)S(=O)(=O)c1ccc(F)cc1 (stereo not drawn)
CCOC(=O)COc1ccc(S(=O)(=O)N2CCN(c3ccccc3F)CC2)cc1
CCc1ccc([C@@H]2CC=C(C(=O)O)[C@H](c3ccc(C(C)(C)C)cc3)N2S(=O)(=O)c2ccc(C)cc2)cc1
N#C/C(=C\c1cccnc1)c1nc2c(s1)CCCC2
CC(C)Cn1c(/C=C/c2ccccc2)nc2ccccc21
CO/N=C(/CNC(=O)c1cccc(Cl)c1)c1ccc(Cl)cc1
CCc1c(C)sc2c1CCN(C(=O)Nc1cc(OC)c(OC)c(OC)c1)C2c1ccccc1 (stereo not drawn)
CCN1C(=O)c2cccc3c(S(=O)(=O)N(C(C)=O)c4ccc(OC(C)=O)cc4)ccc1c23
Cc1ccc(CCNC(=O)c2ccc(NC(=O)N3CC(C)Sc4ccccc43)cc2)cc1 (stereo not drawn)
c1ccc(CNc2nc(N3CCN(Cc4ccccc4)CC3)nc3ccccc23)cc1
CC1(c2ccccc2)NC(=O)N(CC(=O)Nc2ccc([N+](=O)[O-])cc2)C1=O (stereo not drawn)
O=C(CN1CCN(S(=O)(=O)c2ccc(Br)cc2)CC1)Nc1ccc(F)cc1F

A stretch of the results above:
Potency, inactive:
O=C(NC(c1ccccc1)c1ccsc1)C1CCN(Cc2ccc(Cl)c(Cl)c2)CC1 (stereo not drawn)
Oc1cncc(-c2cccnc2)c1
COC(=O)c1c(C)c2c(C)cc3ccccn3c-2c1C(=O)OC
CC(CC(=O)Nc1ccc(Cl)c(S(=O)(=O)N2CCOCC2)c1)c1ccccc1 (stereo not drawn)

In the list so far, 2 have two or more sulfur atoms.
Potency, inactive:
Cc1ccc(S(=O)(=O)NCCc2csc(-c3ccc(Cl)cc3)n2)cc1
COc1ccc(F)cc1S(=O)(=O)NCC(c1ccco1)S(=O)(=O)c1ccc(F)cc1 (stereo not drawn)

Next part.

Potency, inconclusive:
O=C(NCCN1CCCC1)C(c1ccccc1)c1ccccc1 79.4 µM [activator, partial curve, poor fit]
CC(=O)NCC(=O)OC(C)C(=O)Nc1ccc(C(C)=O)cc1 (stereo not drawn) 2.82 µM [activator, partial curve]
CCOc1ccccc1N(C)C(=O)NCc1noc2ccccc12 44.7 µM [activator, partial curve, poor fit]
Cc1ccc(-n2nc(C)c3nc(CCC(=O)Nc4ccc(F)cc4)c(=O)n(C)c32)cc1 100 µM [activator, partial curve, poor fit]
Cc1ccc(C)c(S(=O)(=O)NCc2ccc(C(=O)N3CCOCC3)cc2)c1 44.7 µM [activator, partial curve]
CCOC(=O)c1c(NC(=O)c2ccc(C)c(C)c2)sc2c1CCCCC2 50.1 µM [activator, partial curve, poor fit]
CN(C)c1cc(Nc2ccc(O)cc2)c([N+](=O)[O-])c2nonc12 126 µM [activator, single point]
CCOc1ccc(N(C(C)C(=O)NCc2ccco2)S(C)(=O)=O)cc1 (stereo not drawn) 126 µM [activator, partial curve, poor fit]
CCOC(=O)CC1=C(C(=O)OCC)C(c2ccc(OC)cc2OC)C(C#N)=C(N)O1 (stereo not drawn) 39.8 µM [activator, single point]
CCc1c2ccccc2nn1-c1ccccc1C(=O)C(C)=O 112 µM [activator, single point]
O=C(CN1CCOCC1)N1CCCc2c1c(=O)oc1ccc(OCc3ccccc3)cc21 35.5 µM [activator, single point]
CCCCOc1ccc(C(=O)N/C(=C/C=C/c2ccccc2)C(=O)N2CCOCC2)cc1 50.1 µM [activator, partial curve, poor fit]
O=C(Nc1ccc(Oc2ccccc2)nc1)C1CCCCN1Cc1ccco1 (stereo not drawn) 112 µM [activator, partial curve, poor fit]
CC(OC(=O)COc1ccc(C#N)cc1)C(=O)c1ccccc1 (stereo not drawn) 11.2 µM [activator, partial curve, poor fit]
Cc1ccc(S(=O)(=O)CCC(=O)OCc2ccc(Cl)c(Cl)c2)cc1 5.01 µM [activator, full curve]
COc1ccc(C(C(=O)NC2CCCCC2)N(C(=O)c2cccs2)c2ccc3c(c2)OCO3)cc1 (stereo not drawn) 7.08 µM [activator, partial curve, poor fit]
CCCCN1CC(=O)N2[C@H](c3ccc(Cl)cc3)[C@@H]3C(=O)N(CC)C(=O)[C@@H]3[C@]2(Cc2ccccc2)C1=O 7.08 µM [activator, partial curve, poor fit]
CNC[C@@H]1Oc2cc(Br)ccc2S(=O)(=O)N([C@H](C)CO)C[C@@H]1C 141 µM [activator, single point]
CCCN1CCN(CCCNC(=S)Nc2ccc3nc(N4CCN(CC)CC4)cc(C)c3c2)CC1 112 µM [activator, single point]
Cc1cc2c(=O)n(CC(=O)NCC(=O)N3CCN(Cc4ccccc4)CC3)cnc2s1 0.447 µM [activator, full curve, poor fit]
Cc1ccc(S(=O)(=O)N2CCCCC2C(=O)NCc2ccco2)cc1 (stereo not drawn) 0.891 µM [activator, full curve, poor fit]
c1ccc(-c2nnc3sc(-c4cc5ccccc5o4)nn23)cc1 50.1 µM [activator, single point]
Cc1cccn2c(=O)c3cc(C(=O)NCCN4CCOCC4)c(=N)n(Cc4cccnc4)c3nc12 44.7 µM [activator, partial curve, poor fit]
COc1ccc(C(=O)/C=C/N(C)C)cc1 28.2 µM [activator, single point]
Cc1ccc([N+](=O)[O-])cc1NC(=S)NCCc1ccccc1 100 µM [activator, single point]
COC(=O)c1ccc2c(=O)n(Cc3ccc(C(=O)NCCCN4CCC(C)CC4)cc3)c(=S)[nH]c2c1 50.1 µM [activator, partial curve, poor fit]
Cc1occc1C(=O)Nc1sc2c(c1C(N)=O)CCC(C(C)(C)C)C2 (stereo not drawn) 35.5 µM [activator, single point]
Cc1cc(C)nc(N2CCCC(C(=O)NC(C)C)C2)n1 (stereo not drawn) 15.8 µM [activator, single point]

activation, inconclusive:
CCN1CCN(C(c2cccs2)C(C)NC(=O)c2cccnc2)CC1 (stereo not drawn) 36.7% [activator]
CSc1ccccc1NC(=O)CN(C)C(C)C(=O)Nc1ccc(C#N)cc1 (stereo not drawn) -58.5% [activator]
O=C(CN1CCN(c2ccc(O)cc2)CC1)NC(c1ccccc1)c1ccccc1 35.5% [activator]
CCOc1ccc(NC(=O)CC2C(=O)NCCN2C(=O)Nc2ccccc2)cc1 (stereo not drawn) 42.2% [activator]
COc1cc(OC)cc(C(=O)NNC(=O)c2cc(S(=O)(=O)N3CCOCC3)ccc2F)c1 -92.7% [activator]
COCOc1ccc(C=O)c(O)c1 -49% [activator]
Cc1cc(C(=O)COc2ccccc2C#N)c(C)n1C1CC1 -4% [activator]
Cc1ccc(S(=O)(=O)N2CCOCC2)cc1C(=O)OCC(=O)NC1CC1 43.7% [activator]
O=C(NC1CCCCC1)C(c1ccncc1)N(C(=O)Cc1cccs1)c1ccccc1 (stereo not drawn) 8.47% [activator]
COc1ccc(-c2noc(CC(=O)Nc3ccc(Br)cc3C)n2)cc1 41.4% [activator]
CCc1cc(=O)oc2c(C)c(OCC(=O)NCCCN3CCOCC3)ccc12 31.9% [activator]
